For 22 targets, log2 fold change results are on record in the supplement of paper PMC10849652.

Chains of the proteins cited; added tags and fusions are not shown. Lines headed by an entry give the natural chain unless they say otherwise; changes in a name come on top.
UniProt Q8TF46, whole entry, looked up: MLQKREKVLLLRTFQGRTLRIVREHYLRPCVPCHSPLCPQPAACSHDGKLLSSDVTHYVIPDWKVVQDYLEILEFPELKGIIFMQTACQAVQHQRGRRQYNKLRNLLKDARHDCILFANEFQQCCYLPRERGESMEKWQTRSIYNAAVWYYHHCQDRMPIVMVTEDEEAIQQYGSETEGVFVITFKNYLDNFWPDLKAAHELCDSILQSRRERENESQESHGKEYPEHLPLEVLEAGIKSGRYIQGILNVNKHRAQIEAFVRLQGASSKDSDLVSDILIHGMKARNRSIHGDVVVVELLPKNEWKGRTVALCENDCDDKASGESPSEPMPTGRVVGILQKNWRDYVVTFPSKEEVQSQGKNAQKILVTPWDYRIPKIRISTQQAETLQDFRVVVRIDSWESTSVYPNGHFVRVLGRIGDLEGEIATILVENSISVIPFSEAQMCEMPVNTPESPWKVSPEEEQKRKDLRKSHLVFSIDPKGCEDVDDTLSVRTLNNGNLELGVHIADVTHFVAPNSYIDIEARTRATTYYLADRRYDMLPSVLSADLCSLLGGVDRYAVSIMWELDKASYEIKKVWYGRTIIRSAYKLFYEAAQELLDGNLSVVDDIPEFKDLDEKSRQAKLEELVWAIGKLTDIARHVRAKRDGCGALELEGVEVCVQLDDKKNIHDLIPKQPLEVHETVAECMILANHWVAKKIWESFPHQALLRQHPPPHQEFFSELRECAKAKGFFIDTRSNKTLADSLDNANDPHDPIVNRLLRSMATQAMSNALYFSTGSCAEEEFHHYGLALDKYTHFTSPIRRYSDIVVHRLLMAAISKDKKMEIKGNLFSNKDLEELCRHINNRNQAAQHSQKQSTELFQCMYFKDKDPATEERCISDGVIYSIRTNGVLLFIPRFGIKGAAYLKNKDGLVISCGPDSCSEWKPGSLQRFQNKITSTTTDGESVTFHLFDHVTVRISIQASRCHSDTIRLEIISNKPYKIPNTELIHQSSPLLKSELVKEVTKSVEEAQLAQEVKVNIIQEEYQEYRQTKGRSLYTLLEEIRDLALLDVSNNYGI
UniProt O75907: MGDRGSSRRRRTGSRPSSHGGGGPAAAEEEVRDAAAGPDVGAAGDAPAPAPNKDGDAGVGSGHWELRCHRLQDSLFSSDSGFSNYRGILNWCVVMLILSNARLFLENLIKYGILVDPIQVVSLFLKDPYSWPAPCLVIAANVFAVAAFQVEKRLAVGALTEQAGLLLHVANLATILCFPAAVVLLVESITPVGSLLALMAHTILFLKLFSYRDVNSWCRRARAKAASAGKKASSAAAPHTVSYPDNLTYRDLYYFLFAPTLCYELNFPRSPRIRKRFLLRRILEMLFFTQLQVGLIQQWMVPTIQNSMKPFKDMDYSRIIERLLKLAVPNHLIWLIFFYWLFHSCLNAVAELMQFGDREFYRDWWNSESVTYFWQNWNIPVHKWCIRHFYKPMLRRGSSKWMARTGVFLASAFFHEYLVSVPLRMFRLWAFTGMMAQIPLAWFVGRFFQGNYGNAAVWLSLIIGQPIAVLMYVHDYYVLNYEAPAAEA
UniProt Q9UPY3: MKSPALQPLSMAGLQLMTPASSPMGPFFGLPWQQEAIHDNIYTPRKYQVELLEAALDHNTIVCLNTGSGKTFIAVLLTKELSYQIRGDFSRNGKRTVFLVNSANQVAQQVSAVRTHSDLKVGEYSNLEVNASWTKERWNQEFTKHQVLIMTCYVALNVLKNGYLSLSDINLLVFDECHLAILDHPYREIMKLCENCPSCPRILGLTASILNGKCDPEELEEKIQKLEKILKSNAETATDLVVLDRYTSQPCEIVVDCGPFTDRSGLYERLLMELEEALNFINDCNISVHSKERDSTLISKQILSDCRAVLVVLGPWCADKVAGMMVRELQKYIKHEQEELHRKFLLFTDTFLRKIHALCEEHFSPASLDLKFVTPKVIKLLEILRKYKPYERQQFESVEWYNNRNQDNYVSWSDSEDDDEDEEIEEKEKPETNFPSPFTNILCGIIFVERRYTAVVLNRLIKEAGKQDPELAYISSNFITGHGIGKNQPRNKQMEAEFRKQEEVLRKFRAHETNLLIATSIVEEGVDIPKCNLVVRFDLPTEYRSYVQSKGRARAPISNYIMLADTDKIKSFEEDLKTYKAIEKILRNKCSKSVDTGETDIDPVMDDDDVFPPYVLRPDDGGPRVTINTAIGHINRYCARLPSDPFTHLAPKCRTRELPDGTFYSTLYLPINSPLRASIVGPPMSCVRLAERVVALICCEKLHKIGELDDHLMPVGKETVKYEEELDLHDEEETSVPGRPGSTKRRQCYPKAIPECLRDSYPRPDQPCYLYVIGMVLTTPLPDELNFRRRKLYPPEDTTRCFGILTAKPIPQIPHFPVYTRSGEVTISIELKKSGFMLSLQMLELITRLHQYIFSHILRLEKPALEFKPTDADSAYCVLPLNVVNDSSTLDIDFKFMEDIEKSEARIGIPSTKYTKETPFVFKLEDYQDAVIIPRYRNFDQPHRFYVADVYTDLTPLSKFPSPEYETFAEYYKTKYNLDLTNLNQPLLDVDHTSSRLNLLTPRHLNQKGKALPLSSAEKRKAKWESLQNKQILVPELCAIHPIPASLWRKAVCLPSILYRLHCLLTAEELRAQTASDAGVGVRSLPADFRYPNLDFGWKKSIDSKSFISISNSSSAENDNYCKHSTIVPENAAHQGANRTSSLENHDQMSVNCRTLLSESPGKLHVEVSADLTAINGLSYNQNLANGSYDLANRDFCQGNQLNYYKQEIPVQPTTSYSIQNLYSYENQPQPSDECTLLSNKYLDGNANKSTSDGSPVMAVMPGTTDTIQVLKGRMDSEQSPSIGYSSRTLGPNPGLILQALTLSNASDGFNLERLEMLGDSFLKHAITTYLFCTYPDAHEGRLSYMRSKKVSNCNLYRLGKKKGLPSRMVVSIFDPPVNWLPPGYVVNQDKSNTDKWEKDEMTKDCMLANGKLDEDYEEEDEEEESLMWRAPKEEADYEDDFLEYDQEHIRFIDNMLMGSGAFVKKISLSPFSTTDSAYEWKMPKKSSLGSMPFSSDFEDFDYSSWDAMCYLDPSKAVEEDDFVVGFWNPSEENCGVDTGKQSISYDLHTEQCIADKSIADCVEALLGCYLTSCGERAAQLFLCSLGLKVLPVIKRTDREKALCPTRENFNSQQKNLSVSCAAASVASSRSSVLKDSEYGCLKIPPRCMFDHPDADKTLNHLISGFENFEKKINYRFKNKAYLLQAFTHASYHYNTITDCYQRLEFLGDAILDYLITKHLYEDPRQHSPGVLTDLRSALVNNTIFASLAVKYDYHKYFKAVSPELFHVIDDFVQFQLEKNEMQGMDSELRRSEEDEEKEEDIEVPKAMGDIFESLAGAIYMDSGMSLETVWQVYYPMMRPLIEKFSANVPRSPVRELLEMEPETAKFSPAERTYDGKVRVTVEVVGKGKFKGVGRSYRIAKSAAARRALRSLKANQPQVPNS
UniProt O60832: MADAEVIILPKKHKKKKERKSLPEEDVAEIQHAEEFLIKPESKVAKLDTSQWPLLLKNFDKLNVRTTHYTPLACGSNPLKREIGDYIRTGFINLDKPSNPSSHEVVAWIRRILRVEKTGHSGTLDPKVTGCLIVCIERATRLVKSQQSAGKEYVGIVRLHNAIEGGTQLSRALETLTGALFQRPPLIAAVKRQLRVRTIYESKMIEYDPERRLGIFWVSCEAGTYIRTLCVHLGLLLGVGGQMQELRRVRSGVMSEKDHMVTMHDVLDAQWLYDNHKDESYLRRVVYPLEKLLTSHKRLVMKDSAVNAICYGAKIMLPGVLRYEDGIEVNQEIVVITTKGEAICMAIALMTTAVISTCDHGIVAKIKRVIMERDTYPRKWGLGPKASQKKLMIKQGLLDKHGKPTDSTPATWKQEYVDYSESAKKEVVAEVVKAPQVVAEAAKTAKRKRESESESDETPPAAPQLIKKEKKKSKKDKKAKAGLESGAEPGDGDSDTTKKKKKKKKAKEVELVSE
UniProt O75190: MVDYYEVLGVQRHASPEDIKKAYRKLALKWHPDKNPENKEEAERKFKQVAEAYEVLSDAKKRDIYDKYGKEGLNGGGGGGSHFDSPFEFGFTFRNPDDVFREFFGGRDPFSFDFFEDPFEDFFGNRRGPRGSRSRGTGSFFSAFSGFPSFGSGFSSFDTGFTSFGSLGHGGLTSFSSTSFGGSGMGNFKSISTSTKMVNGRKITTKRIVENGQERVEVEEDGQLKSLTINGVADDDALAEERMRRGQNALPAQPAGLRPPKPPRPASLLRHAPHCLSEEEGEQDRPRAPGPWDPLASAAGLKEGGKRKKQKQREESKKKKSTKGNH
UniProt Q9UNQ2: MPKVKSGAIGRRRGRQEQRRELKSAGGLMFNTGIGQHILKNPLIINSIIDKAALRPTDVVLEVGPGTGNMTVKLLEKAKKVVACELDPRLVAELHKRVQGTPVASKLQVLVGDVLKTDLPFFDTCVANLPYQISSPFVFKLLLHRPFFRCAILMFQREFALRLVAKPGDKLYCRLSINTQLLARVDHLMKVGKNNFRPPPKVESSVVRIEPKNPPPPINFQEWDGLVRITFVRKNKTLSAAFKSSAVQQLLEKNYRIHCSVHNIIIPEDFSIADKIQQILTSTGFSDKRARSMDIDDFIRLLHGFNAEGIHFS
UniProt Q86YN1: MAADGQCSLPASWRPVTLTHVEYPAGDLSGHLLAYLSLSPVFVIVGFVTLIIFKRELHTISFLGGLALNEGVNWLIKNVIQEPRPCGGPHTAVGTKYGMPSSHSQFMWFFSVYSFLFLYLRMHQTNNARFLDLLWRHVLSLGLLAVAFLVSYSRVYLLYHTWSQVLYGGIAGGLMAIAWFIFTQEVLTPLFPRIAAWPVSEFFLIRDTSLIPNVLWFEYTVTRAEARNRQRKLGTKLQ
UniProt Q7L591: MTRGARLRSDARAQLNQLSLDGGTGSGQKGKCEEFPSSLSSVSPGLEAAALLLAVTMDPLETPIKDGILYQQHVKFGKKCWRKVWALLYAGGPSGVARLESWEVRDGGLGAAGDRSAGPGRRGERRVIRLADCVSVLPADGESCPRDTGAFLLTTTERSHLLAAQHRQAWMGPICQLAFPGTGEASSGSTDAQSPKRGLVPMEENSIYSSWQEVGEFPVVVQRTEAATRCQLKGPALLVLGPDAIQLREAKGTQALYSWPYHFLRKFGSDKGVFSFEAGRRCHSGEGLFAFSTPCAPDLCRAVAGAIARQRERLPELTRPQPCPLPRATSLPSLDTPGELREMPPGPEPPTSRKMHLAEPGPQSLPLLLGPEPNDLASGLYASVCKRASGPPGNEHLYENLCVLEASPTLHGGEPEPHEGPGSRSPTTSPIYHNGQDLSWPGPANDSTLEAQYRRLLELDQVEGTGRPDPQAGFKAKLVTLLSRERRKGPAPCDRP
UniProt Q92796: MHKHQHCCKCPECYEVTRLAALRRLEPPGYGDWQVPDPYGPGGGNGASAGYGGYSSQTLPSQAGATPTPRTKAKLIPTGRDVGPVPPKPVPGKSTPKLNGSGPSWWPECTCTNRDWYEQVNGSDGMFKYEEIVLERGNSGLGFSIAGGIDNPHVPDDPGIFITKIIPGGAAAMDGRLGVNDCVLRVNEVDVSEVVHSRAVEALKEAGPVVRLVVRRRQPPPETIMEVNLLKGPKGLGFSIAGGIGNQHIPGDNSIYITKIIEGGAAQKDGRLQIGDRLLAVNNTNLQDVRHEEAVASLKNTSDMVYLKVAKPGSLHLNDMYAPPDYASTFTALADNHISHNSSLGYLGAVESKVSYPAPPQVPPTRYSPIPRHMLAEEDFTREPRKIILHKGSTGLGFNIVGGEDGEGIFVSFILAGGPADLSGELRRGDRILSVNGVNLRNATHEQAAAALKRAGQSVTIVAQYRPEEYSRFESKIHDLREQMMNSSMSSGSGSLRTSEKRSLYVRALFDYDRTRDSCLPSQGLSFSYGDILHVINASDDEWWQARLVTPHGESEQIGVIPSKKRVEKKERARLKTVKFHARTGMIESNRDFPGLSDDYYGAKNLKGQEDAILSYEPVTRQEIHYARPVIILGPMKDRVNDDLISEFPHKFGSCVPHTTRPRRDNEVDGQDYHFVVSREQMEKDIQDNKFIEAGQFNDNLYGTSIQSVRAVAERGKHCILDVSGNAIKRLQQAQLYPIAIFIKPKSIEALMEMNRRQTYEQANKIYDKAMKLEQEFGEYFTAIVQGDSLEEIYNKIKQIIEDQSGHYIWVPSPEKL
UniProt Q9NW81: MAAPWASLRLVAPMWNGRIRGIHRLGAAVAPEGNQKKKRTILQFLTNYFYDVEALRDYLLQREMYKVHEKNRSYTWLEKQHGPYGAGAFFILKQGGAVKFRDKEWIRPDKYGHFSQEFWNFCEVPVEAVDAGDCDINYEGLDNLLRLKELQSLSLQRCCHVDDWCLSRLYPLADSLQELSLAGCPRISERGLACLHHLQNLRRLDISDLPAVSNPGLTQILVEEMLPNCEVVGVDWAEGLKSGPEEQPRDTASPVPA

What all share (assay): log2 fold change, soluble protein after heating vs DMSO (PISA); higher = thermal stabilisation; K562 lysate, 10 uM; active = over 0.2 and 3.5 SD of the protein, either way, in both replicates (recomputed)
Compound in test [1]: NCC(=O)Nc1ccc(-n2nc(C(F)(F)F)cc2-c2ccc3c(ccc4ccccc43)c2)cc1
In short, it runs like this:
(§1)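 K562 pellets were dounce-homogenised in PBS pH 7.4 containing 1 mM MgCl2, and the crude extract, at 1 mg/mL protein, was exposed to 10 μM compound for 30 min. Aliquots were heated for 3 min across 48°C-58°C, pooled, brought to 0.5% NP-40 at 4°C and spun at 21,000xg for 90 min, with the supernatant taken as soluble protein. TMTpro 16plex LC-MS/MS with equalised channel sums quantified that protein. Values are log-two fold changes in thermal stability relative to solvent controls, taken from duplicates.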

Compound in another test: O=C(CCCCCCC(=O)Nc1ccccc1)NO [vorinostat]
In short, it runs like this: as §1

Compound in a further test: O=C(O)c1ccc2c(c1)nc(Nc1cccc(Cl)c1)c1ccncc12 [silmitasertib]
In short, it runs like this: as §1

Compound in test [2]: O=C1NC(=O)C(c2cnc3ccccn23)=C1c1cn2c3c(cc(F)cc13)CN(C(=O)N1CCCCC1)CC2
In short, it runs like this:
as §1

Compound in a further test: c1cn2cc(-c3ccc4cn[nH]c4c3)nc(Nc3ccc(N4CCOCC4)cc3)c2n1 [entospletinib]
A digest of the protocol:
as §1

This is one part of the list.

On to DIS3L (UniProt Q8TF46), for which the log2 fold change in test [1] is inactive: 0.072; in the test with vorinostat, inactive: -0.243; with silmitasertib, inactive: 0.061; in test [2] it was inactive: 0.027; in the test with entospletinib, inactive: -0.05.

As to DGAT1 (UniProt O75907), the log2 fold change is inactive: -0.016 in test [1]; inactive: -0.045 with vorinostat; inactive: 0.027 in the test with silmitasertib; inactive: -0.063 in test [2]; inactive: -0.032 with entospletinib.

For DICER1 (UniProt Q9UPY3), the log2 fold change in test [1] is inactive: 0.022; with vorinostat it was active: -0.58; with silmitasertib it was inactive: 0.042; in test [2], inactive: 0.001; with entospletinib, inactive: -0.004.

For DKC1 (UniProt O60832), the log2 fold change in test [1] was inactive: 0.023; in the test with vorinostat, inactive: 0.133; with silmitasertib, inactive: -0.019; in test [2], inactive: 0.014; in the test with entospletinib it was inactive: 0.002.

With DNAJA2 (UniProt O60884), the log2 fold change was inactive: 0.008 in test [1]; inactive: -0.003 with vorinostat; inactive: 0.006 in the test with silmitasertib; inactive: 0.006 in test [2]; inactive: 0 in the test with entospletinib.

Take DOCK10 (UniProt Q96BY6): the log2 fold change in test [1] is inactive: 0; in the test with vorinostat, inactive: -0.07; in the test with silmitasertib, inactive: 0.143; in test [2], inactive: -0.064; with entospletinib, inactive: 0.023.

In the case of DHX40 (UniProt Q8IX18), the log2 fold change is inactive: -0.052 in test [1]; inactive: -0.063 in the test with vorinostat; inactive: 0.059 with silmitasertib; inactive: -0.039 in test [2]; inactive: -0.001 in the test with entospletinib.

For DLGAP4 (UniProt Q9Y2H0), the log2 fold change is inactive: -0.013 in test [1]; inactive: 0.023 with vorinostat; inactive: 0.017 with silmitasertib; inactive: 0.006 in test [2]; inactive: -0.011 in the test with entospletinib.

Consider DNAAF5 (UniProt Q86Y56), for which the log2 fold change in test [1] was inactive: 0.029; with vorinostat, active: -0.313; with silmitasertib it was inactive: 0.129; in test [2], inactive: 0.02; in the test with entospletinib, inactive: -0.012.

In the case of DGKH (UniProt Q86XP1), the log2 fold change in test [1] is inactive: 0.299; with vorinostat it was inactive: -0.116; with silmitasertib, inactive: -0.022; in test [2], inactive: -0.064; in the test with entospletinib, inactive: 0.077.

On to DOCK9 isoform 4 (UniProt Q9BZ29), for which the log2 fold change was inactive: 0.025 in test [1]; inactive: -0.161 with vorinostat; inactive: -0.022 in the test with silmitasertib; inactive: 0.012 in test [2]; inactive: -0.041 with entospletinib.

For DNAH10 (UniProt Q8IVF4), the log2 fold change in test [1] is inactive: 0.103; with vorinostat, inactive: 0.065; with silmitasertib it was inactive: 0; in test [2], inactive: 0.069; with entospletinib, inactive: 0.065.

Turning to DNTTIP2 (UniProt Q5QJE6), the log2 fold change was inactive: 0.093 in test [1]; inactive: 0.031 with vorinostat; inactive: -0.051 with silmitasertib; inactive: 0 in test [2]; inactive: 0.016 with entospletinib.

With DHCR24 (UniProt Q15392), the log2 fold change is inactive: 0.009 in test [1]; inactive: 0.098 with vorinostat; inactive: -0.011 with silmitasertib; inactive: -0.054 in test [2]; inactive: -0.064 in the test with entospletinib.

For DIAPH1 (UniProt H9KV28), the log2 fold change in test [1] was inactive: -0.002; in the test with vorinostat, inactive: 0.087; with silmitasertib, inactive: 0.084; in test [2], inactive: -0.083; in the test with entospletinib it was inactive: -0.113.

For the target DNAJB6 (UniProt O75190), the log2 fold change was inactive: 0.041 in test [1]; inactive: 0.069 with vorinostat; inactive: -0.04 with silmitasertib; inactive: -0.029 in test [2]; inactive: 0.004 with entospletinib.

Turning to DIMT1 (UniProt Q9UNQ2), the log2 fold change in test [1] was inactive: 0.003; with vorinostat, inactive: 0.072; with silmitasertib it was inactive: 0.015; in test [2] it was inactive: -0.028; with entospletinib, inactive: -0.004.

Consider DOLPP1 (UniProt Q86YN1), for which the log2 fold change in test [1] was inactive: 0.021; with vorinostat, inactive: 0.054; with silmitasertib it was inactive: 0.058; in test [2], inactive: 0.072; with entospletinib, inactive: 0.018.

With DOK3 (UniProt Q7L591), the log2 fold change in test [1] was inactive: 0.153; with vorinostat, inactive: -0.028; with silmitasertib it was inactive: -0.017; in test [2] it was inactive: 0.032; with entospletinib, inactive: 0.039.

Turning to DLG3 isoform 2 (UniProt Q92796), the log2 fold change in test [1] is inactive: 0.067; with vorinostat, inactive: -0.023; in the test with silmitasertib it was inactive: -0.025; in test [2] it was inactive: -0.036; with entospletinib it was inactive: -0.007.

DGKZ (UniProt Q13574): the log2 fold change in test [1] is inactive: 0.036; with vorinostat, inactive: -0.049; with silmitasertib, inactive: -0.041; in test [2], inactive: -0.039; in the test with entospletinib, inactive: 0.

Regarding DMAC2 isoform 4 (UniProt Q9NW81), the log2 fold change is inactive: -0.01 in test [1]; inactive: 0.157 with vorinostat; inactive: -0.032 in the test with silmitasertib; inactive: 0.182 in test [2]; inactive: 0.073 with entospletinib.
